Publication PMC12603192
Results are given in words; binding and its absence hold for the method and conditions named. In cells and extracts the contact can be indirect. Some binding calls cover weakened binding; strength is not graded here. For some assays here: Where a sequence is shown, tags or fusion partners need not be part of it.

Chains of the proteins cited; added tags and fusions are not shown. Residues count along the entry.
UniProt P37173, residues 23-567: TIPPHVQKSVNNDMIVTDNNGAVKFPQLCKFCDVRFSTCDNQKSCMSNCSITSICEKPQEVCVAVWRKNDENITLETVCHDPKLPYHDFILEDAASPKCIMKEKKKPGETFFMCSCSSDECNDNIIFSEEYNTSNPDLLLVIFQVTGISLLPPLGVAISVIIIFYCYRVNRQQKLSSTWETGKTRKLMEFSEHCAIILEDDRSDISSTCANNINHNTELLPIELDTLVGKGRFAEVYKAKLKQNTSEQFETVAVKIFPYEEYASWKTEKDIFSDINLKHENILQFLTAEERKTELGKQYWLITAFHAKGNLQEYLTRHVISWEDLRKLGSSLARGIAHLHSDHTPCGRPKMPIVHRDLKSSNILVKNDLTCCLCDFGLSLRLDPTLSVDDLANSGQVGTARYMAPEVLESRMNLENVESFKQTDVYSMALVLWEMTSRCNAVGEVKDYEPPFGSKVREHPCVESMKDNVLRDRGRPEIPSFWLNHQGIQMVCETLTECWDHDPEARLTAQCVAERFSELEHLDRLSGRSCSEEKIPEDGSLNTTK
UniProt Q15796: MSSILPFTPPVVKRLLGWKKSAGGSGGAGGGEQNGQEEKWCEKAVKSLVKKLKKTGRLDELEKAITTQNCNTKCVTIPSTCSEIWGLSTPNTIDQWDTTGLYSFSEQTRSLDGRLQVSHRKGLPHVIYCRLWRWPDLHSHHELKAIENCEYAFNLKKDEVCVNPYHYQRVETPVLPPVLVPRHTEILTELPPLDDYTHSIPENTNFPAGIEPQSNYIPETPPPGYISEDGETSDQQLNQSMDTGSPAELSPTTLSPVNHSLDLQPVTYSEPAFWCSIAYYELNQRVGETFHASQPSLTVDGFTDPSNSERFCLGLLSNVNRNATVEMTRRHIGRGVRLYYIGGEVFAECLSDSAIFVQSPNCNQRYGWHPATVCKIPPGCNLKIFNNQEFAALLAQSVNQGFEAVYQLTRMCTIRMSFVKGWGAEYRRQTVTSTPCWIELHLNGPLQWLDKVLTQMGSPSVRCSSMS

Tests used:
HA-MARCH2 (human) = molecular target: T1, HA-MARCH2 (human) (UniProt Q9P0N8); assay: co-IP; tagged proteins co-expressed (HEK293T for Fig. 2B); lysis in 1% NP-40, 20 mM Tris-HCl pH 7.6, 150 mM NaCl, 2 mM EDTA; magnetic beads overnight at 4 °C, five washes; immunoblot
T1 sequence: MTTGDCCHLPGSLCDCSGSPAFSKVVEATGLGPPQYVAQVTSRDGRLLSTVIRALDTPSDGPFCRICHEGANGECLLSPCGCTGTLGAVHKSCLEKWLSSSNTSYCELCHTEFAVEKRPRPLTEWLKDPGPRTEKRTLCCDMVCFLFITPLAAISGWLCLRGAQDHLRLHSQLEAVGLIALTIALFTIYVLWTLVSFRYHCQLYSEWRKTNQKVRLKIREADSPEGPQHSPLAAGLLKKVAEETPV

[1] = molecular target: T2, endogenous ALK5 (human (endogenous in A549)) (UniProt P36897); assay: proximity ligation; PLA of ALK5 with SMAD2/3 in mock- or MARCH2-depleted cells upon TGF-β treatment (Fig. S4C)
T2 sequence: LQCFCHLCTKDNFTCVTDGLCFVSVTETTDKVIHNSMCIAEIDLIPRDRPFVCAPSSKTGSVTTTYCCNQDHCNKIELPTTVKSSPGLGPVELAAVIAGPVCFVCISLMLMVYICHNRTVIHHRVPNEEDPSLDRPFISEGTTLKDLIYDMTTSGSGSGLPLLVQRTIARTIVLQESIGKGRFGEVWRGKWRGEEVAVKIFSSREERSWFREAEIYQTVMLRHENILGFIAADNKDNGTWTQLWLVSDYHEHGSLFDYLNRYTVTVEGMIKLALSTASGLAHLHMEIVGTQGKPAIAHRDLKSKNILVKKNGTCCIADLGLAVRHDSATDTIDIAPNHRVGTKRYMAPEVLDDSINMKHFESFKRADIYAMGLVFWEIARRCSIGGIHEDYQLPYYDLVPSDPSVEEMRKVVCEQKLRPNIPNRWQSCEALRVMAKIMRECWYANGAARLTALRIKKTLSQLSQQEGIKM

binding (HA-MARCH2 (human)) | binding [1] | Substance
binds weakly |  | FLAG-TGFBR2 (from UniProt P37173 23-567) (receptor)
 | binds | SMAD2 (from UniProt Q15796 1-467)
